At least one result comes from cells or an extract, where the contact may be indirect. A negative result means that nothing was seen under these conditions. Tags and fusion partners may be left off the protein sequences shown.
Molecular target: T1, CD14 (UniProt P08571)
T1 sequence (looked up, limits assumed): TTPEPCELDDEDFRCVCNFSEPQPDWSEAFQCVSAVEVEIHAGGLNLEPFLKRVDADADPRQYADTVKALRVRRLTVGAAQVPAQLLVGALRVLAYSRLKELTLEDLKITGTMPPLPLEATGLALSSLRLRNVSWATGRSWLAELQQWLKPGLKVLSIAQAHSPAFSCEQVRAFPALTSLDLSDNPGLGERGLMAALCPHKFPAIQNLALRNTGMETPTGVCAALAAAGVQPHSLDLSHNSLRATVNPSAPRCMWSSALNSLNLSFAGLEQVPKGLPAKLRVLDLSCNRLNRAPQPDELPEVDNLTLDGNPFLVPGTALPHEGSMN
Experiment: flow cytometry
Settings: CD14-transfected Jurkat cells, protein on the cell surface, protein details: expressed on transfected Jurkat cells, label: Cy5 (flow cytometry), single-stranded DNA

Sequence | binding result (scrambled control, variant of A2) | binding result (no significant binding over SCRM)
ATCCAGAGTGACGCAGCAATGATAGTGACGTACGGACTAGGGATCACCCATATCATGTAGAGGAAGTACGTGGACACGGTGGCTTAGT [SCRM (scrambled / nonspecific control aptamer)] | no binding | 
ATCCAGAGTGACGCAGCAGAAGAGTAGATGAAACGTTTTTTCGCCCGATAAAAGGGACGTGCGTCAGACATGGACACGGTGGCTTAGT [A2] |  | no binding

Reference: patent US20230017777, “MONOCYTE AND MACROPHAGE BINDING APTAMERS AND THEIR APPLICATION” (University of Washington, published 2023)
